Test results as given in patent US10407428B2, “Spiro-isoquinoline-1,4′-piperidine compounds having multimodal activity against pain” (ESTEVE PHARMACEUTICALS, S.A., priority 2014, dated 2019).
For at least one compound, name, drawing or mass did not settle the structure.

System: human σ1 receptor and human μ-opioid receptor
Assay: Human σ1 receptor radioligand assay and human μ-opioid receptor radioligand assay (μ and σ1 dual binding)
Design: key: +: Both Ki-μ and Ki-σ1>=500 nM; ++: One Ki<500 nM while the other Ki is >=500 nM; +++: Both Ki-μ and Ki-σ1<500 nM; ++++: Both Ki-μ and Ki-σ1<100 nM

With `FC(F)(F)CN1CCc2ccccc2C12CCN(CCc1cncnc1)CC2` [Example 159, 1′-(2-(Pyrimidin-5-yl)ethyl)-2-(2,2,2-trifluoroethyl)-3,4-dihydro-2H-spiro[isoquinoline-1,4′-piperidine]] the “μ and σ1 dual binding” value was “++”.
